Where a name gives a salt, the structure may show the parent alone. Some of the results follow. Repeats in this data set agree poorly, so a single value says little.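 Human kidney-derived cells stably carry a construct in which eight TEAD-binding elements drive luciferase, measured by luminescence in a drug-repurposing library screen. A hit is any compound whose signal exceeds the plate mean by more than five robust Z scores.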

The test system of the test is HEK293A TEAD-LUC reporter. The test is described as follows: TEAD-luciferase reporter activity (YAP activation), robust Z score vs plate; higher = stronger YAP/TEAD activation. The settings on record: 24 h. (Reporter assays use an easily measured gene product as a stand-in for the process of interest.)

As to `O=C(O)CCC(=O)N1Cc2ccccc2CC2(CCCN2CC2CCCCC2)C1` (stereo unspecified), the TEAD-luciferase reporter activity is active: 7.96 (compound concentration: 200 nM) and inactive: -0.386 (compound concentration: 10 uM).
In the case of `Cc1ccc2c(Br)cc(Br)c(OC(=O)c3ccco3)c2n1`, the TEAD-luciferase reporter activity was inactive: 3.56 (compound concentration: 200 nM), inactive: 0.887 (compound concentration: 2 uM) and inactive: 2.38 (compound concentration: 10 uM).
As to `[NH-]c1c[n+](N2CCOCC2)no1`, the TEAD-luciferase reporter activity (compound concentration: 200 nM) is inactive: 2.7, the TEAD-luciferase reporter activity (compound concentration: 2 uM) was inactive: 1.33 and the TEAD-luciferase reporter activity (compound concentration: 10 uM) is inactive: 2.19.
`[NH-]c1c[n+](N2CCOCC2)no1` [Linsidomine]: the TEAD-luciferase reporter activity (compound concentration: 2 uM) is inactive: 1.18.
Consider `NC(N)=NCCC[C@H](NC(=O)[C@H](CCCN=C(N)N)NC(=O)[C@H](CCCN=C(N)N)NC(=O)[C@H](CCCN=C(N)N)NC(=O)[C@H](CCCN=C(N)N)NC(=O)[C@H](CCCN=C(N)N)NC(=O)[C@H](CCCN=C(N)N)NC(=O)[C@H](CCCN=C(N)N)NC(=O)[C@@H](N)CCCN=C(N)N)C(=O)O`, for which the TEAD-luciferase reporter activity was inactive: -1.08 (compound concentration: 200 nM), inactive: -0.609 (compound concentration: 2 uM) and inactive: 0.351 (compound concentration: 10 uM).
For `CCCCN1C[C@H](OC(=O)CCC)[C@@H](OC(=O)CCC)[C@H](OC(=O)CCC)[C@H]1COC(=O)CCC`, in that order: inactive: -1.13, inactive: -1.69 and inactive: -0.153.
`NCC(=O)[O][Cu][O]C(=O)CN` [Cupric Glycinate]: the TEAD-luciferase reporter activity runs as follows: (compound concentration: 200 nM) inactive: -0.91; (compound concentration: 2 uM) inactive: 3.13; (compound concentration: 10 uM) inactive: -1.28.
For `Clc1ccc(C2=CCCNC23CCCCC3)cc1` the same measures were inactive: -0.503, inactive: -1.24 and inactive: -0.113.
For `COc1ccc(C[C@@H]2NC(=O)[C@H](CC(=O)O)NC(=O)CNC(=O)[C@H](CCCNC(=N)N)NC(=O)[C@@H]3CCCN3C(=O)[C@H](CC(N)=O)NC(=O)[C@@H](NC(C)=O)CSSC[C@@H](C(N)=O)NC(=O)[C@H](CCCNC(=N)N)NC2=O)cc1` the same measures were inactive: 1.6, inactive: -1.04 and inactive: -0.907.
For `CNC(=O)O[C@H]1COc2ccc(N3CCN(C4COC4)CC3)cc2[C@@H]1NC(=O)c1ccc(F)cc1`, in that order: inactive: 0.283, inactive: 2.16 and inactive: 0.67.
As to `C#C[C@H](CC(=O)OCC)NC(=O)CCC(=O)Nc1ccc(C(=N)N)cc1` [Xemilofiban Hydrochloride], the TEAD-luciferase reporter activity (compound concentration: 200 nM) is inactive: -0.964, the TEAD-luciferase reporter activity (compound concentration: 2 uM) is inactive: -1.13 and the TEAD-luciferase reporter activity (compound concentration: 10 uM) is inactive: -0.801.
For the compound `CCS(=O)(=O)N1CCC[C@@H]2CN3CCc4cc(OC)ccc4[C@@H]3C[C@@H]21`, the TEAD-luciferase reporter activity by setting is: (compound concentration: 200 nM) inactive: 0.942; (compound concentration: 2 uM) inactive: 0.472; (compound concentration: 10 uM) inactive: -1.56.
As to `CCO[C@@H]1OC(=O)CC1NC(=O)[C@@H]1CCCN1C(=O)[C@@H](NC(=O)c1ccc(N)c(Cl)c1)C(C)(C)C` (stereo partly specified) [Belnacasan], for the setting “compound concentration: 2 uM”, the TEAD-luciferase reporter activity is inactive: -0.748.
Turning to `CCO[C@@H]1OC(=O)CC1NC(=O)[C@@H]1CCCN1C(=O)[C@@H](NC(=O)c1ccc(N)c(Cl)c1)C(C)(C)C` (stereo partly specified), the TEAD-luciferase reporter activity is inactive: -0.221 (compound concentration: 200 nM) and inactive: -1.53 (compound concentration: 10 uM).
For `OC[C@H]1O[C@@H]2O[C@H]3[C@H](O)[C@@H](O)[C@@H](O[C@H]4[C@H](O)[C@@H](O)[C@@H](O[C@H]5[C@H](O)[C@@H](O)[C@@H](O[C@H]6[C@H](O)[C@@H](O)[C@@H](O[C@H]7[C@H](O)[C@@H](O)[C@@H](O[C@H]8[C@H](O)[C@@H](O)[C@@H](O[C@H]1[C@H](O)[C@H]2O)O[C@@H]8CO)O[C@@H]7CO)O[C@@H]6CO)O[C@@H]5CO)O[C@@H]4CO)O[C@@H]3CO` [Benexate cyclodextrin], the TEAD-luciferase reporter activity runs as follows: (compound concentration: 200 nM) inactive: -0.959; (compound concentration: 2 uM) inactive: -0.723; (compound concentration: 10 uM) inactive: 0.411.
With `COc1ccc(C2CC(=O)c3c(O)cc(O)cc3O2)cc1O` (stereo unspecified), the TEAD-luciferase reporter activity (compound concentration: 200 nM) was inactive: -0.641, the TEAD-luciferase reporter activity (compound concentration: 2 uM) was inactive: -1.22 and the TEAD-luciferase reporter activity (compound concentration: 10 uM) is inactive: 1.82.
Regarding `CC(C)c1cccc(C(C)C)c1NC(=O)NCC1(c2ccc(OP(=O)(O)O)cc2)O[C@H](C)[C@@H](C)O1`, the TEAD-luciferase reporter activity reads like this: (compound concentration: 200 nM) inactive: -1.09; (compound concentration: 2 uM) inactive: -0.293; (compound concentration: 10 uM) inactive: 0.226.
For `CC(CC[C@@]1(O)OC2CC3C4CC[C@H]5CC(O[C@@H]6O[C@H](CO)[C@@H](O[C@@H]7O[C@@H](C)[C@H](O)[C@@H](O)[C@H]7O)[C@H](O)[C@H]6O[C@@H]6O[C@@H](CO)[C@H](O)[C@@H](O)[C@H]6O)CC[C@]5(C)C4CC[C@]3(C)C2[C@@H]1C)CO[C@@H]1O[C@H](CO)[C@@H](O)[C@H](O)[C@H]1O` (stereo partly specified), in that order: inactive: -0.184, inactive: -1.4 and inactive: -1.41.
For `O=C1N=C2C=CC=CN2C12Cc1ccccc1C2`, in that order: inactive: -0.45, inactive: -0.682 and active: 8.18.
For `CC(CNC(=O)c1cccnc1)NC(=O)c1cccnc1` (stereo unspecified) [nicaraven] the same measures were inactive: -0.0581, inactive: -0.427 and inactive: -1.48.
As for `CCc1oc2ccccc2c1C(=O)c1ccc(O)cc1`, the TEAD-luciferase reporter activity is inactive: 0.273 (compound concentration: 200 nM), inactive: 0.0427 (compound concentration: 2 uM) and inactive: -1.15 (compound concentration: 10 uM).
Consider `CC(C)c1ccc(C(=O)N=C(N)N)cc1S(C)(=O)=O`, for which the TEAD-luciferase reporter activity is inactive: 0.599 (compound concentration: 200 nM) and inactive: -0.801 (compound concentration: 10 uM).
Turning to `CC(C)c1ccc(C(=O)N=C(N)N)cc1S(C)(=O)=O` [Cariporide mesilate], the TEAD-luciferase reporter activity (compound concentration: 2 uM) was inactive: 0.203.
With `CCS(=O)(=O)N1CCN(c2ccc(Nc3ncc(C(N)=O)c(NC4CC4)n3)cc2)CC1` [Cerdulatinib], the TEAD-luciferase reporter activity by setting is: (compound concentration: 200 nM) inactive: 3.65; (compound concentration: 2 uM) active: 11.2; (compound concentration: 10 uM) active: 13.4.
For `CN(C)CC/C=C1/c2ccccc2CSc2ccccc21` [dosulepine] the same measures were inactive: -1.33, inactive: -1.03 and inactive: -1.59.
For `O=C(Nc1ccccc1)c1cc(Br)cc(Br)c1O` [Metabromsalan] the same measures were inactive: 0.0975, inactive: -1.66 and inactive: -0.365.
With `N=C(NO)N/N=C/c1c(Cl)cccc1Cl`, the TEAD-luciferase reporter activity reads like this: (compound concentration: 200 nM) inactive: -0.548; (compound concentration: 2 uM) inactive: -0.788; (compound concentration: 10 uM) inactive: 2.13.
In the case of `N=C(N)N/N=C/c1c(Cl)cccc1Cl` [Guanabenz acetate], the TEAD-luciferase reporter activity is inactive: -3.1 (compound concentration: 200 nM) and inactive: 0.423 (compound concentration: 10 uM).
Consider `N=C(N)N/N=C/c1c(Cl)cccc1Cl` [guanabenz acetate], for which the TEAD-luciferase reporter activity (compound concentration: 2 uM) was inactive: -1.21.
With `NC(=O)c1cccnc1`, the TEAD-luciferase reporter activity reads like this: (compound concentration: 200 nM) inactive: -2.57; (compound concentration: 10 uM) inactive: -1.2.
For the compound `NC(=O)c1cccnc1` [niacinamide], the TEAD-luciferase reporter activity (compound concentration: 2 uM) is inactive: -0.758.
As for `Cc1[nH]c(CO)c(-c2ccc(Oc3ccc(OC(F)(F)F)cc3)cc2)c(=O)c1Cl`, the TEAD-luciferase reporter activity is inactive: -0.876 (compound concentration: 200 nM), inactive: -0.938 (compound concentration: 2 uM) and inactive: 0.915 (compound concentration: 10 uM).

The record behind these values is the supplement of paper PMC10735217.
